At least one compound was matched to its structure with a doubt left.
Tested on: BT-474, JIMT-1, MDA-MB-231 (breast), DU145, PC3 (prostate), MiaPaCa2 (pancreas)
Experiment: MTS viability, panel of epithelial cancer cell lines (ranges over the cell lines)
Format: cell-based, human
Design: unit not given beside the values
Settings: range over the cell lines tested, 48 h
Procedure: To determine the effect of compounds 1-10 on the viability of the epithelial cancer cell lines, exponentially growing cells, BT-474, JIMT-1, MDA-MB-231 (breast), DU145, PC3 (prostate), MiaPaCa2 (pancreas) were incubated with varying concentrations of 1-8 (0-30 μM) for 48 h followed by viability assays with the MTS reagent.
The effects of the GAELs on the viability of the various epithelial cancer cell lines was determined as previously described. Briefly, equal numbers of the cells were dispersed into 96-well plates. After 24 h, the cells were incubated with the compounds (0-30 μM) for 48 h. At the end of the incubation, MTS reagent (20% vol/vol) was added and the plates were incubated for 1-4 h. The OD490 was read with a plate reader. Wells with media but no cells were treated in similar fashion and the values utilized as blank. The results represent the mean±standard deviation of 6 independent determinations.

Structure (SMILES): CCCCCCCCCCCCCCCCOC[C@H](CO[C@H]1O[C@H](CN)[C@@H](O)[C@H](O)[C@H]1N1C(=O)c2ccccc2C1=O)OC [Compound 3, 1-O-Hexadecyl-2-O-methyl-3-O-(-2′-N-phthalimido-6′-amino-2′,6′-dideoxy-δ-D-glucopyranosyl)-sn-glycerol]
- CC50 values, range depending on the cell line: 15→30

— patent US10806746B2, “Di- and tri-cationic glycosylated antitumor ether lipids, L-gucosylated gaels and rhamnose-linked gaels as cytotoxic agents against epithelial cancer cells and cancer stem cells” (The University of Manitoba, priority 2014, dated 2020)
